# Measurements taken from the supplement of paper PMC8728848.
# The other results are listed elsewhere or left out.
# Legend:
# Assay in all cases: glycan array binding signal (z-score within array); higher = stronger binding
# Conditions in all cases: glycan notation: IUPAC condensed, linker removed
# [1] = molecular target: Man(a1-2)Man(a1-3)[Man(a1-2)Man(a1-6)]Man(a1-6)[Man(a1-2)Man(a1-2)Man(a1-3)]Man
# How it was run: (§1)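 The binding signal is a Z-score computed within each array and averaged over linkers. Arrays of the same protein sequence at different concentrations or buffers were also averaged together. Data originate from 3228 arrays in the Consortium for Functional Glycomics database, kept only where the protein sequence was available.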
# [2] = molecular target: Man(a1-2)Man(a1-3)[Man(a1-2)Man(a1-6)]Man(a1-6)[Man(a1-2)Man(a1-2)Man(a1-3)]Man(b1-4)GlcNAc(b1-4)GlcNAc
# How it was run: as §1
# [3] = molecular target: Man(a1-2)Man(a1-3)[Man(a1-6)]Man(a1-6)[Man(a1-2)Man(a1-3)]Man(b1-4)GlcNAc(b1-4)GlcNAc
# How it was run: as §1
# [4] = molecular target: Man(a1-2)Man(a1-6)[Man(a1-3)]Man(a1-6)[Man(a1-2)Man(a1-2)Man(a1-3)]Man
# How it was run: as §1
# [5] = molecular target: Man(a1-2)Man(a1-6)[Man(a1-3)]Man(a1-6)[Man(a1-2)Man(a1-2)Man(a1-3)]Man(b1-4)GlcNAc(b1-4)GlcNAc
# How it was run: as §1
# [6] = molecular target: Man(a1-3)[Man(a1-6)]Man
# How it was run: as §1
# [7] = molecular target: Man(a1-3)[Man(a1-6)]Man(a1-6)[Man(a1-2)Man(a1-3)]Man(b1-4)GlcNAc(b1-4)GlcNAc
# How it was run: as §1
# [8] = molecular target: Man(a1-3)[Man(a1-6)]Man(a1-6)[Man(a1-3)]Man
# How it was run: as §1
# [9] = molecular target: Man(a1-3)[Man(a1-6)]Man(a1-6)[Man(a1-3)]Man(b1-4)GlcNAc(b1-4)GlcNAc
# How it was run: as §1
# [10] = molecular target: Man(a1-3)[Man(a1-6)]Man(b1-4)GlcNAc(b1-4)GlcNAc
# How it was run: as §1
# [11] = molecular target: Man(a1-3)[Man(a1-6)]Man(b1-4)GlcNAc(b1-4)[Fuc(a1-6)]GlcNAc
# How it was run: as §1
# [12] = molecular target: Man(a1-6)Man
# How it was run: as §1
# [13] = molecular target: Man(b1-4)GlcNAc
# How it was run: as §1
# [14] = molecular target: MurNAc(b1-4)GlcNAc
# How it was run: as §1
# [15] = molecular target: Neu5Ac(a2-3)Gal
# How it was run: as §1
# [16] = molecular target: Neu5Ac(a2-3)Gal(b1-3)GalNAc
# How it was run: as §1
# [17] = molecular target: Neu5Ac(a2-3)Gal(b1-3)GalNAc(b1-3)Gal(a1-4)Gal(b1-4)Glc
# How it was run: as §1
# [18] = molecular target: Neu5Ac(a2-3)Gal(b1-3)GalNAc(b1-4)[Neu5Ac(a2-3)]Gal(b1-4)Glc
# How it was run: as §1
# [19] = molecular target: Neu5Ac(a2-3)Gal(b1-3)GalNAc(b1-4)[Neu5Ac(a2-8)Neu5Ac(a2-3)]Gal(b1-4)Glc
# How it was run: as §1
# [20] = molecular target: Neu5Ac(a2-3)Gal(b1-3)GalNAc6S
# How it was run: as §1
# [21] = molecular target: Neu5Ac(a2-3)Gal(b1-3)GlcNAc
# How it was run: as §1
# [22] = molecular target: Neu5Ac(a2-3)Gal(b1-3)GlcNAc(b1-2)Man
# How it was run: as §1
# [23] = molecular target: Neu5Ac(a2-3)Gal(b1-3)GlcNAc(b1-2)Man(a1-3)[GlcNAc(b1-4)][Neu5Ac(a2-3)Gal(b1-3)GlcNAc(b1-2)Man(a1-6)]Man(b1-4)GlcNAc(b1-4)GlcNAc
# How it was run: as §1
# [24] = molecular target: Neu5Ac(a2-3)Gal(b1-3)GlcNAc(b1-2)Man(a1-3)[Neu5Ac(a2-3)Gal(b1-3)GlcNAc(b1-2)Man(a1-6)]Man(b1-4)GlcNAc(b1-4)GlcNAc
# How it was run: as §1
# [25] = molecular target: Neu5Ac(a2-3)Gal(b1-3)GlcNAc(b1-3)Gal(b1-3)GlcNAc
# How it was run: as §1
# [26] = molecular target: Neu5Ac(a2-3)Gal(b1-3)GlcNAc(b1-3)Gal(b1-4)GlcNAc
# How it was run: as §1
# [27] = molecular target: Neu5Ac(a2-3)Gal(b1-3)GlcNAc(b1-3)GalNAc
# How it was run: as §1
# [28] = molecular target: Neu5Ac(a2-3)Gal(b1-3)GlcNAc(b1-4)Gal(b1-4)Glc
# How it was run: as §1
# [29] = molecular target: Neu5Ac(a2-3)Gal(b1-3)GlcNAc(b1-6)GalNAc
# How it was run: as §1
# [30] = molecular target: Neu5Ac(a2-3)Gal(b1-3)GlcNAc6S
# How it was run: as §1
# [31] = molecular target: Neu5Ac(a2-3)Gal(b1-3)[Fuc(a1-4)]GlcNAc
# How it was run: as §1
# [32] = molecular target: Neu5Ac(a2-3)Gal(b1-3)[Fuc(a1-4)]GlcNAc(b1-3)Gal(b1-3)[Fuc(a1-4)]GlcNAc
# How it was run: as §1
# [33] = molecular target: Neu5Ac(a2-3)Gal(b1-3)[Fuc(a1-4)]GlcNAc(b1-3)Gal(b1-4)[Fuc(a1-3)]GlcNAc
# How it was run: as §1
# [34] = molecular target: Neu5Ac(a2-3)Gal(b1-3)[GlcNAc(b1-6)]GalNAc
# How it was run: as §1
# [35] = molecular target: Neu5Ac(a2-3)Gal(b1-3)[Neu5Ac(a2-6)]GalNAc
# How it was run: as §1
# [36] = molecular target: Neu5Ac(a2-3)Gal(b1-3)[Neu5Ac(a2-6)]GlcNAc(b1-3)[Fuc(a1-3)[Gal(b1-4)]GlcNAc(b1-6)]Gal(b1-4)Glc
# How it was run: as §1
# [37] = molecular target: Neu5Ac(a2-3)Gal(b1-3)]Neu5Ac(a2-3)Gal(b1-4)]GlcNAc
# How it was run: as §1
binder,measurement,setting,value
PX14343G-pdi-535-24-535 (Parabacteroides distasonis) (protein) LDTVPKDQLAPSTTWQTEADAKGFIVGCYKDLLDGNTLLYLDCGSDIGYNNFPWEGFRPWGDGSLSSSNPGQILYDYKSIRKANTFLENVDKVTFSSDAVKANYVAQAKAIRAYKYFLMNWWYGGVPIISSYSSADEAKVERNTEQEVRDYIAKDLDEALAGIAEAPEARGYIAKGAVLAIKMREALYYGDWQKAKDAAKAIIDLKQYELDPDYTNLFKVSGVDSKEIILADQNIETLDGLGTIGQMYNNVDQGWSSIVPTQNLVDMYEMSDGLTKEESKTYDAKHPFANRDPRMAMTILYPGRDWRGDVLNTLDEKLQDGTVNKNFPTYTDNASKSALTWAKYLDPMDQYGDVWSSGACPIVFRYAEVLLTYAEAANELSGPSDEIYGYLNQIRQRVGMGEVDKAKYGTKDKLRELIRRERTVELAGEGLRRADIVRWQEDGKMLAEKVMNGDLLRVTGTINYGESEPTKRAEITGTAVIETRQFSSRNRYLPIPQTSMDKNPNLKQNPGY,glycan array binding signal (z-score),[1],-0.205
same,glycan array binding signal (z-score),[2],0.892
same,glycan array binding signal (z-score),[3],-0.884
same,glycan array binding signal (z-score),[4],-1.27
same,glycan array binding signal (z-score),[5],1.06
same,glycan array binding signal (z-score),[6],-1.51
same,glycan array binding signal (z-score),[7],-0.028
same,glycan array binding signal (z-score),[8],-0.217
same,glycan array binding signal (z-score),[9],0.904
same,glycan array binding signal (z-score),[10],-0.762
same,glycan array binding signal (z-score),[11],0.371
same,glycan array binding signal (z-score),[12],2.08
same,glycan array binding signal (z-score),[13],1.13
same,glycan array binding signal (z-score),[14],0.78
same,glycan array binding signal (z-score),[15],-0.963
same,glycan array binding signal (z-score),[16],-0.109
same,glycan array binding signal (z-score),[17],0.085
same,glycan array binding signal (z-score),[18],-0.642
same,glycan array binding signal (z-score),[19],0.336
same,glycan array binding signal (z-score),[20],-0.954
same,glycan array binding signal (z-score),[21],-0.984
same,glycan array binding signal (z-score),[22],0.495
same,glycan array binding signal (z-score),[23],-0.329
same,glycan array binding signal (z-score),[24],0.463
same,glycan array binding signal (z-score),[25],1.46
same,glycan array binding signal (z-score),[26],-0.799
same,glycan array binding signal (z-score),[27],-0.603
same,glycan array binding signal (z-score),[28],0.258
same,glycan array binding signal (z-score),[29],0.28
same,glycan array binding signal (z-score),[30],0.659
same,glycan array binding signal (z-score),[31],-0.235
same,glycan array binding signal (z-score),[32],-0.375
same,glycan array binding signal (z-score),[33],-0.605
same,glycan array binding signal (z-score),[34],-0.441
same,glycan array binding signal (z-score),[35],-0.287
same,glycan array binding signal (z-score),[36],-0.263
same,glycan array binding signal (z-score),[37],-0.118
